PubChem BioAssay AID248 (DTP/NCI, 2004)
The list does not hold the whole screen: it is rich in T/C values a quarter to a half above the control, in often repeated tests (any T/C) and in doses without a T/C. Other doses and runs of a compound stand elsewhere. T/C is the treated group as % of the vehicle group. Some entries give survivors of the animals treated and no T/C: the source holds a T/C of zero for them, seemingly a mark for toxic or unscored doses. Some survivor counts are full or nearly so, which does not show that the dose was tolerated: the source hardly ever lists a survival T/C far under the control, and the zero likely stands for such cases as well. Survivors were counted at the toxicity check, usually on the fifth day, unless a day is given; later deaths do not show. Schedules are NCI's codes, taken here to give the interval after Q, in days (D) or hours (H), and the number of doses after X. Some schedule codes hold Z or #, which are not explained here. Some molecules as drawn cover several salts, stereoisomers or complexes of the source; a dose is that of the sample tested. Some doses were run more than once; the values are given in rising order. Where survival is the endpoint, the PubChem record calls one and a half times the control and up active, and a quarter to a half above the control has no call in these data; cut-offs in other NCI protocols can differ.

System: L1210 leukemia ip in BDF1 mice, survival T/C
Experiment: NCI In Vivo Anticancer Drug Screen. Data for tumor model L1210 Leukemia (intraperitoneal) in B6D2F1 (BDF1) mice
Conditions: T/C endpoint: mean survival time, higher T/C = longer survival
[1] = dose: 200.0 mg/kg/injection, schedule: Q01DX009 (ip), vehicle: Klucel (hydroxypropylcellulose) (HPC)
[2] = dose: 400.0 mg/kg/injection, schedule: Q01DX009 (ip), vehicle: Klucel (hydroxypropylcellulose) (HPC)
[3] = dose: 200.0 mg/kg/injection, schedule: Q04DX003 (ip), vehicle: saline
[4] = dose: 400.0 mg/kg/injection, schedule: Q04DX003 (ip), vehicle: saline
[5] = dose: 75.0 mg/kg/injection, schedule: Q01DX001 (ip), vehicle: saline
[6] = dose: 150.0 mg/kg/injection, schedule: Q01DX001 (ip), vehicle: saline
[7] = dose: 300.0 mg/kg/injection, schedule: Q01DX001 (ip), vehicle: saline
[8] = dose: 400.0 mg/kg/injection, schedule: Q01DX001 (ip), vehicle: carboxymethylcellulose (CMC)
[9] = dose: 200.0 mg/kg/injection, schedule: Q01DX001 (ip), vehicle: saline
[10] = dose: 400.0 mg/kg/injection, schedule: Q01DX001 (ip), vehicle: saline
[11] = dose: 100.0 mg/kg/injection, schedule: Q04DX003 (ip), vehicle: saline with Tween-80
[12] = dose: 200.0 mg/kg/injection, schedule: Q04DX003 (ip), vehicle: saline with Tween-80
[13] = dose: 400.0 mg/kg/injection, schedule: Q04DX003 (ip), vehicle: saline with Tween-80
[14] = dose: 100.0 mg/kg/injection, schedule: Q01DX009 (ip), vehicle: Klucel (hydroxypropylcellulose) (HPC)

Structure (SMILES): c1ccncc1
- survivor count (dose: 25.0 mg/kg/injection, schedule: Q01DX009 (ip), vehicle: alcohol): 2 of 3
- survivor count (dose: 50.0 mg/kg/injection, schedule: Q01DX009 (ip), vehicle: alcohol): 3 of 3
- survivor count (dose: 100.0 mg/kg/injection, schedule: Q01DX009 (ip), vehicle: alcohol): 3 of 6 and 3 of 3
- survivor count [1]: 6 of 6
- survivor count (dose: 200.0 mg/kg/injection, schedule: Q01DX009 (ip), vehicle: alcohol): 1 of 6
- survivor count [2]: 3 of 6
- survivor count (dose: 400.0 mg/kg/injection, schedule: Q01DX009 (ip), vehicle: alcohol): 0 of 6

Structure (SMILES): S=C(NCc1ccccc1)NCc1ccccc1
- survivor count (dose: 200.0 mg/kg/injection, schedule: Q04DX002 (ip), vehicle: Klucel (hydroxypropylcellulose) (HPC)): 3 of 3
- survivor count (dose: 400.0 mg/kg/injection, schedule: Q04DX002 (ip), vehicle: Klucel (hydroxypropylcellulose) (HPC)): 2 of 3

Structure (SMILES): CC(CC1c2ccccc2CCc2ccccc21)CN(C)C (stereo unspecified)
- survivor count (dose: 100.0 mg/kg/injection, schedule: Q01DX009 (ip), vehicle: saline): 3 of 6
- survivor count [3]: 0 of 4
- survivor count [4]: 0 of 4

Structure (SMILES): CCCCCCCC/C=C\CCCCCCCCOCC(O)CO (stereo unspecified)
- survivor count (dose: 200.0 mg/kg/injection, schedule: Q01DX009 (ip), vehicle: acetone): 2 of 6
- survivor count (dose: 400.0 mg/kg/injection, schedule: Q04DX003 (ip), vehicle: acetone): 4 of 6

Structure (SMILES): CCCCCCCCC[n+]1cccc(C(=O)c2ccccc2)c1
- survivor count [5]: 2 of 6
- survivor count [6]: 0 of 6
- survivor count [7]: 0 of 6

Structure (SMILES): CCOC1=CCCCC1
- survivor count (dose: 750.0 mg/kg/injection, schedule: Q01DX Z (ip), vehicle: methylcellulose (MC)): 0 of 6

Structure (SMILES): Clc1ccc2c(NC3CCC(NC4CCCCC4)CC3)ccnc2c1 (stereo unspecified)
- survivor count (dose: 24.0 mg/kg/injection, schedule: Q01DX Z (ip), vehicle: carboxymethylcellulose (CMC)): 2 of 6

Structure (SMILES): CC1CCCC2=[N+]1CCCC2 (stereo unspecified)
- survivor count [8]: 1 of 4

Structure (SMILES): COC(=O)c1[nH]cnc1/N=N/N(C)C.[Cl][Cu][Cl]
- survivor count (dose: 20.0 mg/kg/injection, schedule: Q01DX009 (ip), vehicle: saline): 2 of 6
- survivor count (dose: 30.0 mg/kg/injection, schedule: Q01DX009 (ip), vehicle: saline): 0 of 6
- survivor count [5]: 0 of 6
- survivor count [6]: 0 of 6
- survivor count [7]: 0 of 6

Structure (SMILES): O=[N+]([O-])c1ccc(O)c([N+](=O)[O-])c1
- survivor count (dose: 6.7 mg/kg/injection, schedule: Q01DX Z (ip), vehicle: carboxymethylcellulose (CMC)): 10 of 10
- survivor count (dose: 13.4 mg/kg/injection, schedule: Q01DX Z (ip), vehicle: carboxymethylcellulose (CMC)): 10 of 10
- survivor count (dose: 26.8 mg/kg/injection, schedule: Q01DX Z (ip), vehicle: carboxymethylcellulose (CMC)): 0 of 10
- survivor count [9]: 0 of 6
- survivor count [10]: 0 of 6

Structure (SMILES): Cc1c(N)cccc1N
- survivor count (dose: 50.0 mg/kg/injection, schedule: Q01DX009 (ip), vehicle: saline with Tween-80): 1 of 6
- survivor count [11]: 1 of 6
- survivor count [12]: 0 of 6
- survivor count [13]: 0 of 6

Structure (SMILES): O=[N+]([O-])c1[nH]c(Br)c(Br)c1Br
- survivor count (dose: 6.25 mg/kg/injection, schedule: Q01DX009 (ip), vehicle: Klucel (hydroxypropylcellulose) (HPC)): 1 of 3
- survivor count (dose: 12.5 mg/kg/injection, schedule: Q01DX009 (ip), vehicle: Klucel (hydroxypropylcellulose) (HPC)): 0 of 3
- survivor count (dose: 25.0 mg/kg/injection, schedule: Q01DX009 (ip), vehicle: Klucel (hydroxypropylcellulose) (HPC)): 0 of 3
- survivor count (dose: 50.0 mg/kg/injection, schedule: Q01DX009 (ip), vehicle: Klucel (hydroxypropylcellulose) (HPC)): 0 of 3
- survivor count [14]: 0 of 3
- survivor count [1]: 0 of 3

Structure (SMILES): CCCCCCCCC(=O)N(C)OC
- survivor count [13]: 1 of 6

Structure (SMILES): O=C(NC(=S)Nc1ccccc1)c1cccc(Cl)c1
- survivor count (dose: 300.0 mg/kg/injection, schedule: Q01DX001 (ip), vehicle: carboxymethylcellulose (CMC)): 1 of 6

Structure (SMILES): CN1CCCC(C)(CN2c3ccccc3Sc3ccccc32)C1 (stereo unspecified)
- survivor count [4]: 3 of 6

Structure (SMILES): CCCCNC(=O)CCl
- survivor count [10]: 0 of 4

Structure (SMILES): CC=C=[CH][Sn]([CH2]CC)([CH2]CC)[CH2]CC
- survivor count [6]: 2 of 6
- survivor count [7]: 0 of 6

Structure (SMILES): CCC1(c2ccccc2)NC(=O)N(C)C1=O (stereo unspecified)
- survivor count [2]: 3 of 6

Structure (SMILES): CCOc1ccc2c(c1)c(C)cc(C)[n+]2CC
- survivor count [11]: 0 of 3
- survivor count [12]: 0 of 3
- survivor count [13]: 0 of 3

Structure (SMILES): c1ccc(C2(c3ccccc3)CC([P+](c3ccccc3)(c3ccccc3)c3ccccc3)=NN2)cc1
- survivor count [10]: 0 of 6

Structure (SMILES): O=C(O)c1ccc([N+](=O)[O-])cc1O
- survivor count [8]: 4 of 4

Structure (SMILES): Cc1ccc[n+](CC(=O)c2ccc(-c3ccc(C(=O)C[n+]4cccc(C)c4)cc3)cc2)c1
- survivor count (dose: 12.5 mg/kg/injection, schedule: Q04DX003 (ip), vehicle: saline): 0 of 6
- survivor count (dose: 25.0 mg/kg/injection, schedule: Q04DX003 (ip), vehicle: saline): 0 of 6
- survivor count (dose: 50.0 mg/kg/injection, schedule: Q04DX003 (ip), vehicle: saline): 0 of 6
- survivor count (dose: 100.0 mg/kg/injection, schedule: Q04DX003 (ip), vehicle: saline): 0 of 6
- survivor count [3]: 0 of 6
- survivor count [4]: 0 of 6

Structure (SMILES): ClC(Cl)(Cl)c1ccc(C(Cl)(Cl)Cl)cc1
- survivor count [14]: 1 of 6
- survivor count [1]: 0 of 6
- survivor count (dose: 400.0 mg/kg/injection, schedule: Q04DX003 (ip), vehicle: Klucel (hydroxypropylcellulose) (HPC)): 1 of 6

Structure (SMILES): CC(C)C(NC(=O)OC(C)(C)C)C(=O)O (stereo unspecified)
- T/C (dose: 25.0 mg/kg/injection, schedule: Q04DX003 (ip), vehicle: other): 125 % of control
- survivor count [9]: 1 of 6
- survivor count [10]: 0 of 6
- survivor count (dose: 400.0 mg/kg/injection, schedule: Q04DX003 (ip), vehicle: other): 4 of 6 and 5 of 6

Structure (SMILES): CCCCCCNC(=S)Nc1ccccc1
- survivor count [10]: 1 of 4

Structure (SMILES): C=C(Br)CNC(=O)CCC
- survivor count (dose: 20.0 mg/kg/injection, schedule: Q04DX003 (ip), vehicle: saline): 2 of 6

Structure (SMILES): COc1ccc(C)cc1NC(=S)NC(=O)C(C)Oc1ccccc1 (stereo unspecified)
- survivor count [1]: 5 of 6
- survivor count [2]: 6 of 6

Structure (SMILES): CCCCCCCCCCCCCCCCNS(=O)(=O)c1ccc2sc(SC)nc2c1
- survivor count [11]: 6 of 6

Structure (SMILES): CC1(C)N=C(N)N=C(N)N1c1cccc(CN)c1
- survivor count (dose: 200.0 mg/kg/injection, schedule: Q01DX009 (ip), vehicle: saline): 0 of 6
- survivor count [3]: 2 of 6
- survivor count [4]: 1 of 6

Structure (SMILES): COc1ccccc1C1CCCCCCC1OS(=O)(=O)c1ccc(C)cc1 (stereo unspecified)
- survivor count (dose: 150.0 mg/kg/injection, schedule: Q01DX001 (ip), vehicle: acetone): 6 of 6
- survivor count (dose: 300.0 mg/kg/injection, schedule: Q04DX003 (ip), vehicle: saline): 6 of 6

Structure (SMILES): O=CNC(CSC(=O)c1ccccc1)C(=O)O (stereo unspecified)
- survivor count [2]: 3 of 6

Structure (SMILES): [Cu+2].[NH-]C(CC(=O)O)C(=O)O.[NH-]C(CC(=O)O)C(=O)O (stereo unspecified)
- survivor count [5]: 0 of 6
- survivor count (dose: 80.0 mg/kg/injection, schedule: Q01DX001 (ip), vehicle: saline): 1 of 6
- survivor count [6]: 0 of 6
- survivor count [7]: 0 of 6

Structure (SMILES): COC(=O)N1C=C2C(C)=CC1C(C#N)(C#N)C2(C#N)C#N (stereo unspecified)
- survivor count (dose: 20.0 mg/kg/injection, schedule: Q01DX001 (ip), vehicle: saline): 1 of 6 and 2 of 6
- survivor count (dose: 40.0 mg/kg/injection, schedule: Q01DX001 (ip), vehicle: saline): 0 of 6
- survivor count [5]: 0 of 6
- survivor count [6]: 0 of 6
- survivor count [7]: 0 of 6

Structure (SMILES): Oc1ccccc1C=Nc1ccccc1O
- T/C (dose: 50.0 mg/kg/injection, schedule: Q04DX002 (ip), vehicle: gum acacia): 125 % of control
